{"sequences": {"note": "Chains of the proteins cited; added tags and fusions are not shown.", "UniProt Q13304, whole entry, species assumed": "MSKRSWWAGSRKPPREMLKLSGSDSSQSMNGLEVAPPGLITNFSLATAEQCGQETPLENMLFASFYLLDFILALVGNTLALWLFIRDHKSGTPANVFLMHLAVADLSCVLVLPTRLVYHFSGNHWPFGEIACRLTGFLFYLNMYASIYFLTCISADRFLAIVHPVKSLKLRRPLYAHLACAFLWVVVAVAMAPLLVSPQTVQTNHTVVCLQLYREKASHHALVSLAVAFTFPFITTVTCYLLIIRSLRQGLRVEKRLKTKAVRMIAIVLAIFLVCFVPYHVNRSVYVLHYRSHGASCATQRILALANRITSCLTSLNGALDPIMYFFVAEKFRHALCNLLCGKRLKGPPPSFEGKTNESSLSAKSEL"}, "source": "patent US12071404B2", "about": "“Aza (indole)-, benzothiophene-, and benzofuran-3-sulfonamides” (UCB Pharma GmbH, priority 2016, dated 2024)", "origin": "cited, not measured here", "key": {"remyelination": {"tested_on": "remyelination", "conditions": "treated wild-type mice; lysolecithin focal demyelination; cited from earlier work"}, "[1]": {"tested_on": "primary mouse oligodendrocytes", "conditions": "cited from earlier work"}, "[2]": {"tested_on": "primary rat oligodendrocytes", "conditions": "cited from earlier work"}, "GPR17": {"target": "GPR17 (Homo sapiens, UniProt Q13304)", "conditions": "cited from earlier work"}}, "note": "At least one structure is not confirmed: it was looked up by name or label, or the drawing left a doubt."}
{"compound": "O=C(Nc1cccc2c(=O)cc(-c3nnn[nH]3)oc12)c1ccc(OCCCCc2ccccc2)cc1", "note": "[pranlukast]", "values": [{"measurement": "onset of remyelination", "setting": "remyelination", "result": "earlier onset of remyelination"}, {"measurement": "oligodendrocyte differentiation", "setting": "[1]", "result": "promotes differentiation"}, {"measurement": "oligodendrocyte differentiation", "setting": "[2]", "result": "promotes differentiation"}, {"measurement": "affinity to GPR17", "setting": "GPR17", "result": "high micromolar range"}]}
